One substance from patent publication US20120076722A1 can be followed below.

Sequences of proteins named here, by UniProt entry; tags and fusion partners are left off. Residues count along the entry.
UniProt P41273: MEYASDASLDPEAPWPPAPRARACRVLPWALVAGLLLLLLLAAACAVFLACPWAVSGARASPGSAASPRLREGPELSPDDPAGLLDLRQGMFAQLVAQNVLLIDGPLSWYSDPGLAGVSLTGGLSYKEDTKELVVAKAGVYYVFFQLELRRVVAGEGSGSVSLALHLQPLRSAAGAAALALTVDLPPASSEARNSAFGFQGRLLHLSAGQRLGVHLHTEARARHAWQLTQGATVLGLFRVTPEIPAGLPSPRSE
UniProt Q07011, residues 24-186: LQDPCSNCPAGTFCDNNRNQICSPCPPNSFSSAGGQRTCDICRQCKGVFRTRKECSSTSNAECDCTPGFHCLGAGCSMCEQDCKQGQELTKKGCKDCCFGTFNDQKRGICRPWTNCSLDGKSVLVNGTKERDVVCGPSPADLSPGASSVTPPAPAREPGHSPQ

The target of the test is human 4-1BBL expressed on transfected P815 cells (P815-4-1BBL) (human) (UniProt P41273). The experiment in a line: staining of P815 clones expressing human 4-1BBL (data not shown).

No constants are given. Whether binding was seen depends on the method and setting. Some entries that bind do so weakly or less than the wild type.

Take “human 4-1BB fusion protein (from UniProt Q07011 24-186)”: the binding entry is listed as “binds”.
